{"sequences": {"note": "Sequences of proteins named here, by UniProt entry; tags and fusion partners are left off. A change or cut given only in a name is not applied to a line headed by its entry.", "UniProt P11473": "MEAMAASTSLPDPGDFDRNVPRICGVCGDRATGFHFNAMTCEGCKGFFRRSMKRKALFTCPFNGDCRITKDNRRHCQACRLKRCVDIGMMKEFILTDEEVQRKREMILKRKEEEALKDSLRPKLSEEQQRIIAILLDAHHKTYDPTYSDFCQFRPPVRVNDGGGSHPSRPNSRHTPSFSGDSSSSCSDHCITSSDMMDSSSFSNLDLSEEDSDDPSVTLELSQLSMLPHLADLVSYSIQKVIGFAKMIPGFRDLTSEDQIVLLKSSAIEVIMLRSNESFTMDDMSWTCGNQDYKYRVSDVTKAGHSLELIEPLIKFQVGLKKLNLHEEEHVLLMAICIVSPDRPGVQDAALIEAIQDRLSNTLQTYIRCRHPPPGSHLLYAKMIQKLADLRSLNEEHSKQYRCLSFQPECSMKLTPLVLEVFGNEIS"}, "source": "PubChem BioAssay AID504847", "about": "(National Center for Advancing Translational Sciences (NCATS), 2011)", "note": "Hit rate of the full screen: of about 400,000 compounds, about 3,700 (0.93%) were called active. This list was built around the results that the source calls inconclusive (neither active nor inactive); the mix of calls is not that of the screen. Calls follow the shape of the dose curve; as a rule, active = well fitted inhibition curve with a large enough effect; inconclusive = small, poorly fitted or top-dose-only effect, or another doubt; inactive = no such curve, though single readings can be large or run the other way. A potency beside an inconclusive call is a rough fit, not a confirmed value. % is scaled to controls: 0 for no effect and ±100 for the full control effect; potency is read from the fitted curve at half-maximal effect."}
{"target": "Vitamin D3 receptor (Homo sapiens) (UniProt P11473)", "experiment": "Inhibitors of the vitamin D receptor (VDR): qHTS", "conditions": "VDR-SRC2-3 peptide fluorescence polarization, 2 h; max response, negative = inhibition: hits give low values", "outline": "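Reagent solutions, kept cold and dark, are dispensed first; compounds are then pinned in at 23 nl, plates briefly spun, and incubated 2 h at ambient temperature. Inhibition of VDR–SRC2-3 peptide binding is read by fluorescence polarization.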"}
{"smiles": "Cc1ccc(C(=O)OCn2ncc(Cl)c(Cl)c2=O)cc1", "Potency": "inconclusive: 56.2 µM [inhibitor, partial curve, poor fit]"}
{"smiles": "Oc1cc2c(c(Cl)c1O)CCNCC2c1ccccc1", "note": "(configuration not stated)", "Potency": "inconclusive: 50.1 µM [inhibitor, partial curve, poor fit]"}
{"smiles": "O=C(COC(=O)CNC(=O)C1CCCCC1)Nc1cc(C(F)(F)F)ccc1Cl", "Potency": "inconclusive: 100 µM [inhibitor, single point]"}
{"smiles": "CC(C)N1CCC2(CC1)N=C(c1ccc3c(c1)OCO3)CC(c1cc(Cl)ccc1O)N2", "note": "(configuration not stated)", "Potency": "inconclusive: 89.1 µM [inhibitor, partial curve, poor fit]"}
{"smiles": "C=C(CN(C)C)C(=O)c1cc(OC)c(OC)cc1OC", "Potency": "active: 50.1 µM"}
{"smiles": "COc1ccccc1C(=O)Nc1cccc(S(=O)(=O)N2CCCC2)c1", "Potency": "inconclusive: 79.4 µM [inhibitor, partial curve, poor fit]"}
{"smiles": "Cc1nc2nc(C(F)(F)F)[nH]n2c(=O)c1Cc1ccccc1", "max response, negative = inhibition": "inactive: -7.18%"}
{"smiles": "CCOC(=O)c1ccc(/C=C2/C=C(c3ccccc3)N(c3ccc(Cl)c(C(=O)O)c3)C2=O)cc1", "Potency": "inconclusive: 17.8 µM [inhibitor, full curve, poor fit]"}
{"smiles": "Cc1ccc(-c2nc(C(=O)NC3CCCCCC3)no2)cc1", "Potency": "active: 79.4 µM"}
{"smiles": "COc1ccc(NC(=S)Nn2cnnc2)c(OC)c1", "Potency": "inconclusive: 89.1 µM [inhibitor, single point]"}
{"smiles": "O=C(c1ccc(Cl)c(Cl)c1)N1CCC(=O)N(C(COCc2cccc(C(F)(F)F)c2)Cc2ccccc2)CC1", "note": "(configuration not stated)", "Potency": "inconclusive: 89.1 µM [inhibitor, partial curve, poor fit]"}
{"smiles": "O=S1(=O)c2ccc(Br)cc2OC(COCc2ccccc2)CN1Cc1ccccc1", "note": "(configuration not stated)", "Potency": "inconclusive: 89.1 µM [inhibitor, single point]"}
{"smiles": "CC(Oc1ccccc1)C(=O)N1CCC2(CC1)Oc1ccc(F)cc1C(=O)C21CC(c2ccccc2)=NO1", "note": "(configuration not stated)", "Potency": "inconclusive: 70.8 µM [inhibitor, partial curve]"}
{"smiles": "CC1CN(C(=O)N2c3ccccc3Sc3ccccc32)CC(C)O1", "note": "(configuration not stated)", "Potency": "inconclusive: 100 µM [inhibitor, partial curve, poor fit]"}
{"smiles": "NNC(=O)c1ccc(N2CCc3ccccc32)c([N+](=O)[O-])c1", "Potency": "inconclusive: 79.4 µM [inhibitor, single point]"}
{"smiles": "CC(C)Oc1ccc(C(=O)NC2CCCCC2)cc1", "max response, negative = inhibition": "inactive: 10.8%"}
{"smiles": "O=S(=O)(Nc1nccs1)c1ccc(F)cc1", "Potency": "inconclusive: 56.2 µM [inhibitor, partial curve, poor fit]"}
